Assay [1] addresses T1, pRb (cell cycle control protein, cellular/endogenous) (human (endogenous in HaCaT and CaSki)) (UniProt P06400).
T1 sequence: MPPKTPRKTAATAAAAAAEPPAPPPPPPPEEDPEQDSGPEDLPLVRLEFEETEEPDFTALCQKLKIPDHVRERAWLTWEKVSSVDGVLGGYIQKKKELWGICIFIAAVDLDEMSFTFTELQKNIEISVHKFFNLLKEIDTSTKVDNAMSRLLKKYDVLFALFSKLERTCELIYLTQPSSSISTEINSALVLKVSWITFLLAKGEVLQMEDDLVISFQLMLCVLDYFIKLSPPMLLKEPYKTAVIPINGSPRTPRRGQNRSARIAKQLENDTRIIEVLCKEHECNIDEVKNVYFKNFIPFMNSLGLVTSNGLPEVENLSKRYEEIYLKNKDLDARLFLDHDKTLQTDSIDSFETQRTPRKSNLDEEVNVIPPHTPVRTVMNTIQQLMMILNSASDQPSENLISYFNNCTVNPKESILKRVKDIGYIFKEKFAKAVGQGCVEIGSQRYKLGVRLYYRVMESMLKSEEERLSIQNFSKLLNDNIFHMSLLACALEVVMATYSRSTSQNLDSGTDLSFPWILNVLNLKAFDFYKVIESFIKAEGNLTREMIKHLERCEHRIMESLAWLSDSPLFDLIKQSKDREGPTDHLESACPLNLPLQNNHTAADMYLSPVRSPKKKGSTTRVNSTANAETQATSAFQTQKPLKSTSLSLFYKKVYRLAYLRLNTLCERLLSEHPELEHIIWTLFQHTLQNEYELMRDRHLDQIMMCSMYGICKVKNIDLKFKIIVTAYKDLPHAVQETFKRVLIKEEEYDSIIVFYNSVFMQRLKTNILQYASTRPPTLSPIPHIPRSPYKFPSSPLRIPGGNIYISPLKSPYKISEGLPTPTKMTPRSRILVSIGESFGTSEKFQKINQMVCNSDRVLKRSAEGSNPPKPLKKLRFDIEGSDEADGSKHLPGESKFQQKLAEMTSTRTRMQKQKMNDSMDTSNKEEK
The experiment in a line: co-IP.

Protein sequences, listed by entry. Tags and fused reporters are not part of them.
UniProt P03129: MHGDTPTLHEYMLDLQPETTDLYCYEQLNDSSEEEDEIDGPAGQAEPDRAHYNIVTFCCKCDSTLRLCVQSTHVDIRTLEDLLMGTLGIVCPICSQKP

The target in assay [2] is GST-E7 (HPV16 E7 oncoprotein, wild type) (HPV16) (UniProt P03129). The experiment in a line: pull-down; only the target purified.
Assay [3] concerns the target HPV16 E7 (endogenous in CaSki cells) (HPV16 (endogenous in CaSki)) (UniProt P03129). The experiment in a line: co-IP.

These are yes or no findings as the source states them, for the method shown. In cells and extracts the contact can be indirect. Some entries that bind do so weakly or less than the wild type.

As for “HPV16 E7 (endogenous in CaSki cells) (from UniProt P03129 1-98)”, in assay [1], the binding result was “binds”.

B1: pRb (cell cycle control protein, cellular/endogenous) (protein, UniProt P06400 1-928)
chain: MPPKTPRKTAATAAAAAAEPPAPPPPPPPEEDPEQDSGPEDLPLVRLEFEETEEPDFTALCQKLKIPDHVRERAWLTWEKVSSVDGVLGGYIQKKKELWGICIFIAAVDLDEMSFTFTELQKNIEISVHKFFNLLKEIDTSTKVDNAMSRLLKKYDVLFALFSKLERTCELIYLTQPSSSISTEINSALVLKVSWITFLLAKGEVLQMEDDLVISFQLMLCVLDYFIKLSPPMLLKEPYKTAVIPINGSPRTPRRGQNRSARIAKQLENDTRIIEVLCKEHECNIDEVKNVYFKNFIPFMNSLGLVTSNGLPEVENLSKRYEEIYLKNKDLDARLFLDHDKTLQTDSIDSFETQRTPRKSNLDEEVNVIPPHTPVRTVMNTIQQLMMILNSASDQPSENLISYFNNCTVNPKESILKRVKDIGYIFKEKFAKAVGQGCVEIGSQRYKLGVRLYYRVMESMLKSEEERLSIQNFSKLLNDNIFHMSLLACALEVVMATYSRSTSQNLDSGTDLSFPWILNVLNLKAFDFYKVIESFIKAEGNLTREMIKHLERCEHRIMESLAWLSDSPLFDLIKQSKDREGPTDHLESACPLNLPLQNNHTAADMYLSPVRSPKKKGSTTRVNSTANAETQATSAFQTQKPLKSTSLSLFYKKVYRLAYLRLNTLCERLLSEHPELEHIIWTLFQHTLQNEYELMRDRHLDQIMMCSMYGICKVKNIDLKFKIIVTAYKDLPHAVQETFKRVLIKEEEYDSIIVFYNSVFMQRLKTNILQYASTRPPTLSPIPHIPRSPYKFPSSPLRIPGGNIYISPLKSPYKISEGLPTPTKMTPRSRILVSIGESFGTSEKFQKINQMVCNSDRVLKRSAEGSNPPKPLKKLRFDIEGSDEADGSKHLPGESKFQQKLAEMTSTRTRMQKQKMNDSMDTSNKEEK
Regarding B1, the binding entry in assay [2] and in assay [3] was “binds” each time.
